Results from publication PMC8939146.
Results are given in words; binding and its absence hold for the method and conditions named. Binding seen in cells or lysates may run through a third protein. Some binding calls cover weakened binding; strength is not graded here. Blank lines part the entries; values can stand above or below the molecule they belong to.

Key:
[1] = biological target: Signal transducer and activator of transcription 1 (STAT1) (human (endogenous in HCT116)) (UniProt P42224); assay: condition: only cells treated with 50 μM THIF for 6 h; co-IP; as a1, the sample of HCT116 cells treated with 50 μM THIF for 6 h
[2] = biological target: T1, Signal transducer and activator of transcription 1 (STAT1) (human (endogenous in HCT116)), P42224; assay: co-IP; HCT116 cells treated with vehicle (control) or 50 μM THIF for 6 h; total cell lysates (500 μg) immunoprecipitated with anti-STAT1 antibody overnight at 4 °C, protein A/G agarose 2 h at 4 °C, washed with PBS, Western blot; details: remark: other sources report otherwise
T1 chain: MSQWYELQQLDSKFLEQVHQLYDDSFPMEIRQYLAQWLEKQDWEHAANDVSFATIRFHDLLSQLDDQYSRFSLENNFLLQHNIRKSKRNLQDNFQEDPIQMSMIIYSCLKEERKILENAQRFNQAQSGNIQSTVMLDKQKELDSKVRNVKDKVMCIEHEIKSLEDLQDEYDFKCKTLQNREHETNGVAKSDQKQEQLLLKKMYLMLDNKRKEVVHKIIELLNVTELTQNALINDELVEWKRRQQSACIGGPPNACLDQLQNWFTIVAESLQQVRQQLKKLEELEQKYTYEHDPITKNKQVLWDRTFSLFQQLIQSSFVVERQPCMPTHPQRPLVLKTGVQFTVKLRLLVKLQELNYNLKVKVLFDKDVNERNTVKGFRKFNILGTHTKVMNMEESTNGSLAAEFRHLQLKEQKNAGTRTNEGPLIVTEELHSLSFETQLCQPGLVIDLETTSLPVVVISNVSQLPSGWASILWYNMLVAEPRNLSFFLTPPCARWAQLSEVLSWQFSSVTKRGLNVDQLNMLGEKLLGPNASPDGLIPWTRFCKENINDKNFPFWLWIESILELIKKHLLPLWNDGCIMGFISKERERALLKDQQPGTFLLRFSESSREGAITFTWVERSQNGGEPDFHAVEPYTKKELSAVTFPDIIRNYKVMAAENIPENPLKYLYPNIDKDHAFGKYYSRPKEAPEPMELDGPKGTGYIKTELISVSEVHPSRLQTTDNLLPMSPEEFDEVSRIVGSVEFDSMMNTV

binding [1]: no binding
Molecule: phosphorylated STAT1 (from UniProt P42224 1-750)

binding [2]: binds
B1: phosphorylated STAT1, P42224 1-750 (protein)
chain: T1 chain
modifications: here or on the partner: phosphorylated (site not stated)
